Screen size: about 2,000 compounds; fewer than 10 were called active.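 The calls were made as follows: active = growth inhibition of at least 75% in every replicate, which also brings the mean inhibition to 75% or more; inconclusive = mean inhibition 75% or more but some replicate under 75%; inactive = the rest.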 This is one part of the list.
Test: reduced viability of yeast carrying PfHsp90 – S. cerevisiae, BacTiter-Glo luminescence, antimalarial PfHsp90 inhibitor project, primary screen (AID 504594);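 also: 0% = DMSO neutral control wells and 100% = 20 µM radicicol control wells; higher value means stronger growth inhibition because the sign is flipped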
Details: S. cerevisiae expressing PfHsp90, BacTiter-Glo growth, 48 h; at 9.4 µM; stronger effect = higher value

**Q.** Which growth inhibition does the source give for COc1ccc(C(=O)/C=C/c2ccc(OC(=O)c3cc(OC)c(OC)c(OC)c3)cc2)cc1 here?
**A.** inactive: 3.44%

**Q.** Which growth inhibition does the source give for COc1cccc(C2CC(=O)C3=C(C2)Nc2ccccc2N(C(=O)CCC(=O)O)C3c2ccc(F)cc2)c1 (stereo not drawn) here?
**A.** inactive: 3.39%

**Q.** With CC(=O)NC(NC(=S)N1CCCCCC1)C(Cl)(Cl)Cl (stereo not drawn) as the compound, how does the growth inhibition read?
**A.** inactive: -2.52%

**Q.** For COc1ccc(-c2nc(C)c(C(C)=O)n2O)cc1OC, which growth inhibition is on record?
**A.** inactive: -1.05%

**Q.** Which growth inhibition does the source give for COc1ccc(N2C(=O)C3CCCN3C2=O)cc1 (stereo not drawn) here?
**A.** inactive: -8.92%

**Q.** Which growth inhibition does the source give for COc1cc(=O)n(C)c2ccccc12 here?
**A.** inactive: -35%

**Q.** For Cc1cc(C(=O)Nc2ccccc2C(=O)N2CCCCC2)ccc1[N+](=O)[O-], which growth inhibition is on record?
**A.** inactive: 2.1%

**Q.** With CN(Cc1ccccc1)CC(O)COc1ccc(CNCc2cccnc2)cc1 (stereo not drawn) as the compound, how does the growth inhibition read?
**A.** inactive: 7.57%

**Q.** For COc1ccc2[nH]c3c(c2c1)CCNC3C1CC=C(C)CC1 (stereo not drawn), which growth inhibition is on record?
**A.** inactive: 4.09%

**Q.** Which growth inhibition does the source give for CCOC(=O)C1(CCCc2ccccc2)CCN(C2CCN(C(C)=O)CC2)CC1 here?
**A.** inactive: 4.53%

**Q.** Which growth inhibition does the source give for NC(=O)[C@@H]1[C@@H]2C(=O)N(c3ccc(F)cc3)C(=O)[C@@H]2[C@H]2C=Cc3ccccc3N21 here?
**A.** inactive: 2.84%

**Q.** Which growth inhibition does the source give for CN(C)CCN(Cc1cccs1)c1ccccn1 here?
**A.** inactive: 3.92%

**Q.** With CCNC(=O)C12CCC(C)(C(=O)O1)C2(C)C (stereo not drawn) as the compound, how does the growth inhibition read?
**A.** inactive: -1.1%

**Q.** Which growth inhibition does the source give for COc1cc2c(cc1OC)C(c1cc3ccccc3oc1=O)=NC(C)(C)C2 here?
**A.** inactive: -7.93%

**Q.** Which growth inhibition does the source give for COc1ccc2oc(-c3ccco3)cc(=O)c2c1 here?
**A.** inactive: 2.21%

**Q.** With CCOc1cc2oc(=O)c3c(c2cc1Cl)CCC3 as the compound, how does the growth inhibition read?
**A.** inactive: 6.37%

**Q.** Which growth inhibition does the source give for NC(=O)N1c2ccccc2C=Cc2ccccc21 here?
**A.** inactive: -2.22%

**Q.** For COc1cc(C2NCCc3c2[nH]c2ccccc32)ccc1OC(C)C (stereo not drawn), which growth inhibition is on record?
**A.** inactive: -1.68%

**Q.** For O=C(/C=C/c1ccc(F)cc1)NC(=S)N1CCCCC1c1cccnc1 (stereo not drawn), which growth inhibition is on record?
**A.** inactive: 4.68%

**Q.** With O=C(c1ccc(-c2ccccc2)c(F)c1)C1CCCN(C(=O)c2cncs2)C1 (stereo not drawn) as the compound, how does the growth inhibition read?
**A.** inactive: 20.8%

**Q.** With COc1ccc(C(=O)COc2ccc(F)cc2)c(O)c1 as the compound, how does the growth inhibition read?
**A.** inactive: -16.2%

**Q.** Which growth inhibition does the source give for COc1ccc2c(c1OC)C(=O)N1C2SC[C@H]1C(=O)NC1CC(C)(C)NC(C)(C)C1 (stereo partly drawn) here?
**A.** inactive: 2.59%

**Q.** For O=C(NC1CCCCC1)c1cc2nc(-c3ccco3)cc(C(F)(F)F)n2n1, which growth inhibition is on record?
**A.** inactive: -11%

**Q.** For Cc1c(OCC(F)(F)F)ccnc1CS(=O)c1nc2ccccc2[nH]1 (stereo not drawn), which growth inhibition is on record?
**A.** inactive: 4.38%

**Q.** For CC(C)OC(=O)c1ccc(NC(=O)c2cncc(Br)c2)cc1, which growth inhibition is on record?
**A.** inactive: 5.62%

**Q.** For COC(=O)c1sccc1NC(=O)Nc1ccccc1F, which growth inhibition is on record?
**A.** inactive: 2.18%

**Q.** For CCN(CC)c1ccc([C@H]2[C@@H]3CCCC[C@]3(O)CCN2CC(=O)NCc2ccco2)cc1, which growth inhibition is on record?
**A.** inactive: -0.728%

**Q.** Which growth inhibition does the source give for O=C(O)COc1ccc2occ(C(=O)c3ccccc3)c2c1 here?
**A.** inactive: -5.05%

**Q.** For CN(C)c1ccc(Nc2c3c4c(cccc4n(C)c2=O)C(=O)c2ccccc2-3)cc1, which growth inhibition is on record?
**A.** inactive: 6.14%

**Q.** Which growth inhibition does the source give for COc1cc(-c2cccs2)cc(=O)c2c(C)oc(C)c12 here?
**A.** inactive: -8.26%

**Q.** Which growth inhibition does the source give for O=Cc1ccccc1Oc1ccccc1 here?
**A.** inactive: -0.351%

**Q.** For CCc1cc2c(=O)c(-c3nc(C)cs3)coc2cc1OC(C)C(=O)NCCO (stereo not drawn), which growth inhibition is on record?
**A.** inactive: -1.46%

**Q.** With O=C(O)c1ccc(C(=O)C(=O)c2ccccc2)cc1 as the compound, how does the growth inhibition read?
**A.** inactive: 13.8%

**Q.** With COc1ccc(CCN2CCC(Nc3nc4ccccc4n3Cc3ccc(F)cc3)CC2)cc1 as the compound, how does the growth inhibition read?
**A.** inactive: 18.5%

**Q.** With O=C1CC[C@@H](CN(Cc2ccccc2)Cc2cn[nH]c2-c2cc3ccccc3o2)N1 as the compound, how does the growth inhibition read?
**A.** inactive: -2.73%

**Q.** With Cc1ncc([N+](=O)[O-])n1CCO as the compound, how does the growth inhibition read?
**A.** inactive: -7.01%

**Q.** With O=C(COc1ccc(F)cc1)OCCN1CCOCC1 as the compound, how does the growth inhibition read?
**A.** inactive: 12.9%

**Q.** For CCN(CC)CC#CCOC(=O)C(O)(c1ccccc1)C1CCCCC1 (stereo not drawn), which growth inhibition is on record?
**A.** inactive: 3.43%

**Q.** Which growth inhibition does the source give for CCN1CCN(C(=S)c2ccc(OC)cc2)CC1 here?
**A.** inactive: -1.26%

**Q.** With O=C1Cc2ccccc2C(c2ccccc2)N1 (stereo not drawn) as the compound, how does the growth inhibition read?
**A.** inactive: 5.96%

**Q.** Which growth inhibition does the source give for O=C(/C=C/c1ccccc1)c1ccccc1 here?
**A.** inactive: -23.7%

**Q.** Which growth inhibition does the source give for Cn1cc(CN2CCN(CCO)CC2)c(-c2ccc(Oc3ccccc3)cc2)n1 here?
**A.** inactive: 5.85%

**Q.** Which growth inhibition does the source give for Cc1nc(NC(CC(C)C)C(=O)O)c2nc(C)oc2n1 (stereo not drawn) here?
**A.** inactive: 3.07%

**Q.** Which growth inhibition does the source give for COc1cc2nc(N3CCN(C(=O)c4ccco4)CC3)nc(N)c2cc1OC here?
**A.** inactive: -11.3%

**Q.** Which growth inhibition does the source give for CC(=O)Oc1ccc(C2OC(=O)c3ccccc3N2C(C)=O)cc1 (stereo not drawn) here?
**A.** inactive: -6.47%

**Q.** With COc1ccc(OC)c(-n2c(Cn3c(-c4ccccn4)nc4ccccc43)n[nH]c2=S)c1 as the compound, how does the growth inhibition read?
**A.** inactive: -11.3%

**Q.** Which growth inhibition does the source give for CC(C)(C)OC(=O)NCCC(=O)Oc1ccc2ccc(=O)oc2c1 here?
**A.** inactive: 7%

**Q.** Which growth inhibition does the source give for CCc1cc2c(=O)c(-c3nc4ccccc4n3C)coc2c(CN2CCN(C)CC2)c1O here?
**A.** inactive: 0.821%

**Q.** For CC(=O)N1CC23C=CC(CC2CC12CCCCCC2)O3 (stereo not drawn), which growth inhibition is on record?
**A.** inactive: -6.53%

**Q.** For O=C(O)C1[C@H]2C(=O)N(C3CCCC3)C[C@]23C=C[C@H]1O3 (stereo partly drawn), which growth inhibition is on record?
**A.** inactive: -15.6%

**Q.** With O=c1c2ccccc2nnn1Cc1cccc2ccccc12 as the compound, how does the growth inhibition read?
**A.** inactive: -17.5%

**Q.** For C#CCN(C)Cc1ccccc1, which growth inhibition is on record?
**A.** inactive: -0.947%

**Q.** Which growth inhibition does the source give for O=C(O)c1ccccc1OCCOc1ccccc1 here?
**A.** inactive: 3.6%

**Q.** With CCn1cc(C(=O)O)c(=O)c2ccc(C)nc21 as the compound, how does the growth inhibition read?
**A.** inactive: -1.72%

**Q.** Which growth inhibition does the source give for COc1ccc2cc(CCC(C)=O)ccc2c1 here?
**A.** inactive: -10.2%

**Q.** For CC(=O)N(CCC(Cc1ccccc1)c1ccc2c(c1)OCO2)Cc1ccc(Cl)cc1 (stereo not drawn), which growth inhibition is on record?
**A.** inactive: -1.84%

**Q.** With CN/C(=C/[N+](=O)[O-])NCCSCc1ccc(CN(C)C)o1 as the compound, how does the growth inhibition read?
**A.** inactive: 11.7%

**Q.** For O=C(CCCN1CC=C(n2c(=O)[nH]c3ccccc32)CC1)c1ccc(F)cc1, which growth inhibition is on record?
**A.** inactive: -3.01%

**Q.** Which growth inhibition does the source give for COc1cc2oc(-c3ccc(O)cc3)cc(=O)c2c(OC)c1O here?
**A.** inactive: 9.38%

**Q.** With COc1ccc2oc(=O)c(C(=O)Nc3ccccc3-c3ccccc3)cc2c1 as the compound, how does the growth inhibition read?
**A.** inactive: -9.43%

**Q.** With CCN(CC)CCNC(=O)c1cc(S(C)(=O)=O)ccc1OC as the compound, how does the growth inhibition read?
**A.** inactive: 4.59%

**Q.** With C=CCn1c(SCC(=O)NC2CCCCC2)nc2ccccc2c1=O as the compound, how does the growth inhibition read?
**A.** inactive: -4.58%

**Q.** Which growth inhibition does the source give for CC(=O)Nc1ccc2[nH]c(C)c(CC=C(Cl)Cl)c(=O)c2c1 here?
**A.** inactive: 12.6%

— PubChem BioAssay AID504594 (Broad Institute, 2011)
